The values below come from publication PMC10616288.

One experiment addresses mCherry-C/EBPα-p30 (UniProt P49715). Description: native gel or EMSA; lysates of co-transfected HEK 293 T cells in non-denaturing lysis buffer without SDS; 8% native PAGE, Tris-glycine running buffer pH 8.8; western blot. (A gel shift assay detects complexes by their altered migration in electrophoresis.)
In another experiment the target is mCherry-LZ. The experiment is described as above.

No constants are given. Whether binding was seen depends on the method and setting. Some entries that bind do so weakly or less than the wild type.

For the molecule “mCherry-C/EBPα-p30 (from UniProt P49715-1 120-358)”, the binding result in the experiment with mCherry-C/EBPα-p30 was “binds”.

B1: mCherry-LZ (domain or fragment)
chain: TQQKVLELTSDNDRLRKRVEQLSRELDTLRGIFRQL
Consider B1, for which the binding entry with mCherry-LZ is “binds”.
